Patent US9669005B2, “Use of naringenin in preparing drugs for preventing and/or treatment abdominal aortic aneurysm” (priority 2013, dated 2017)
At least one compound was matched to its structure with a doubt left.

Assays:
Type in all cases: in vivo
MMP-2 and NMP-9 = assay: Gelatin zymography, CaPO4 model; conditions: CaPO4 daubed mice; infrarenal abdominal aorta culture supernatant; FIG. 4B
Experimental: After extravasated blood in fresh removed blood vessels of infrarenal site in abdominal aortas of mice were cleared, and fat and connective tissues were removed, and blood vessels were cut into 1 cm ring, and put into 24-well plate. Blood vessels were cultured for 24 hours using 0.5 ml serum-free medium with high glucose. After the cultured supernatant protein was quantified, mercaptoethanol-free protein sample loading buffer was added, cryopreserved at −80° C. Water was used to prepare gelatin (Sigma-Aldrich, St. Louis, Mo.) into a concentration of 10 mg/ml, which was added to separation gel of protein electrophoresis according to the proportion of 1:10, causing the final concentration of gelatin as 1 mg/ml. Electrophoresis was performed in a voltage of 80V at 4° C. The gel was put into 0.25% Trixon-100 solution, and washing was performed twice in 30 minutes. […] Incubated gel was put into Coomassie brilliant blue to stain for 1-2 hours at room temperature, washed for 30 minutes with a solution having 30% methanol and 10% glacial acetic acid, a solution having 20% methanol and 10% glacial acetic acid, and a solution having 10% methanol and 5% glacial acetic acid, respectively, and then analyzed with Odyssey infrared fluorescence scanning system (LI-COR Biosciences, Lincoln, Nebr.). […]

matrix metalloproteinase = assay: In situ zymography, CaPO4 model; conditions: CaPO4 daubed mice; FIG. 4A
Experimental: After the aortas of mice were perfused with PBS, fresh tissue was directly embedded with OCT, put in liquid nitrogen for freezing, and then continuously sliced. Firstly, washing was performed with PBS for 3 min, thrice. A fluorescently labeled DQ-gelation-FITC substrate (Sigma-Aldrich, St. Louis, Mo.) was incubated 1 hour at 37° C. Under normal circumstances, fluorescent label for the substrate was packaged, so there is no fluorescence; after activated gelatinase degraded gelatin, green fluorescent label would be exposed. After the section was incubated, washing was performed with PBS for 3 min, thrice, and then the section was sealed. Immunofluorescence confocal microscopy was used to irradiate. The stronger fluorescence was, which means, the stronger activity of matrix metalloproteinase was.

[1] = tested on: abdominal aortic aneurysms in C57BL/6J mice with CaPO4 daubed infrarenal arteries; assay: Abdominal aortic aneurysm model induced by CaPO4 daubed infrarenal aortas, naringenin or doxycycline gavage; conditions: CaPO4 daubed C57BL/6 mice, daily gavage 7 days
Experimental: 12-week old of male C57BL/6 mice were anesthetized via intraperitoneal injection of 0.1% pentobarbital sodium (injection according to body weight, […]). Infrarenal abdominal aortas were separated, and the separated infrarenal abdominal aortas were packaged by gauze (1 cm in width×3 cm in length) soaked in 0.5 M CaCl2 solution. After 10 minutes, the gauze was removed, gauze soaked in PBS was instead used to package the blood vessel for 5 min. CaCl2+and PO4^−3 in PBS can form CaPO4 crystal, that is, corresponding to daubing CaPO4 to the blood vessel. After packaging the blood vessel with gauze soaked in NaCl for 10 minutes, gauze soaked in PBS is instead used for 5 min, serving as NaCl daubed control group.
Gavage was started at the first day after surgery, and water, naringenin (50 mg/kg) (Sigma-Aldrich, St. Louis, Mo.) or doxycycline (100 mg/kg) (Sigma-Aldrich, St. Louis, Mo.) gavage were given on mice daily. Materials were removed from the mice 7 days after gavage. Mice were weighed, and blood was drawn from inner canthus by capillary, after centrifuged for 10 minutes at 6000 rotations, the supernatant was removed and blood fat was measured (kit is purchased from BIOSINO company). Then perfusion and washing were performed on mice using PBS. Blood vessels were separated, and four blood vessels were randomly chosen for each group for photographing. […]

[2] = tested on: macrophages and leukocytes in adventitia in vascular walls; assay: Immunohistochemical staining of inflammatory cells (Mac3, CD45) in vascular walls, CaPO4 model; conditions: CaPO4 daubed mice, FIG. 3A
Source text: In the onset of abdominal aortic aneurysm, inflammatory cell infiltration of vascular walls is a common feature. We used histochemical staining to identify inflammatory cells infiltrated in vascular walls. Mac3 is the result of immumohistochemical staining on anti-Mac3 specific antibody, representative of macrophage, and CD45 is the result of immumohistochemical staining on anti-CD45 specific antibody, representative of leukocyte.

For `C[C@H]1c2cccc(O)c2C(=O)C2=C(O)[C@]3(O)C(=O)C(C(N)=O)=C(O)[C@@H](N(C)C)[C@@H]3[C@@H](O)[C@@H]21` [doxycycline, reference compound], the “MMP-2 and NMP-9 (gelatin zymography)” value (MMP-2 and NMP-9) was “reverse the increase of MMP-2 and NMP-9 caused by CaPO4 daubing”, the “activity of matrix metalloproteinase (in situ zymography)” value (matrix metalloproteinase) was “reduce the activity of matrix metalloproteinase induced by CaPO4 daubing” and the “fracture of elastic lamina of infrarenal abdominal aortas (Gomori staining)” value ([1]; FIG. 2B) was “reverse the effect of CaPO4”. The “incidence rate and degree of bulge of blood vessels at infrarenal site” value ([1]; naringenin 50 mg/kg, doxycycline 100 mg/kg, vascular photos FIG. 1) was “reduce the incidence rate and degree of bulge” and the “infiltration of macrophages and leukocytes in adventitia in vascular walls” value [2] was “reduce such effect”.
